Data on 5 molecules can be found in article PMC9782626, “Copper(II) Complexes of 5–Fluoro–Salicylaldehyde: Synthesis, Characterization, Antioxidant Properties, Interaction with DNA and Serum Albumins” (Molecules, 2022).

Like-named read-outs stand apart in the source and are kept apart here.

Series [1] has as its system CT DNA. Kind of series: Binding study with CT DNA by UV-vis spectroscopy. Further details: species or system calf. The protocol: Initially, the UV–vis spectra of complexes 1–5 (2.5 × 10^−5 – 1 × 10^−4 M) were recorded in the presence of incremental amounts of CT DNA (Figure 4), and the changes of the λmax of the bands observed in the spectra of the complexes were monitored as a means to study the interaction between complexes and CT DNA [50] and to calculate the corresponding DNA-binding constants (Kb). As observed, in the UV–vis spectra of the complexes, at least two bands were observed: band I in the range 314–339 nm and band II in the region 380–428 nm. […] These features indicate the interaction of the complexes with CT DNA [51], but may not provide sufficient information to reveal the possible interaction mode. Therefore, for the elucidation of the CT DNA interaction mode, further experiments involving DNA-viscosity measurements and competitive studies with EB were performed. […]
S2Binding studies with CT DNA
The interaction of the compounds with CT DNA was studied by UV-vis spectroscopy, viscosity measurements a nd via competit ive stud ie s with EB by fl uorescence […]
S2.1 Binding study with CT DNA by UV -vis spectroscopy
The interaction of the compounds with CT DNA has been studied by UV-vis spectroscopy in order to investigate the possible binding modes to CT DNA and to calculate the DNA-binding constants (Kb). The Kb constants (in M-1) were determined by the Wolfe-Shimer equation (eq. S1) [S3] and the plots [DNA]/(εA-εf) versus [DNA] using the UV-vis spectra of the compounds (20 -100 μM) recorded for a constant concentration with increasing concentrations of CT DNA for diverse [complex]/[DNA] mixing ratios (= r ).
Control experiments with DMSO were performed and no changes in the spectra of CT DNA were observed. […]
[DNA] = [DNA] + 1 (eq. S1) […]
where [DNA] is the concentration of DNA in base pa irs, εA = Aobsd/[compound ], εf = the extinction coefficient for the free compound and ε b = the extinction coefficient for the compound in the fully bound form. Kb is given by the ratio of slope to the y intercept in plots [DNA]/(εA-εf) versus[DNA]. […]

Series [2] relates to CT DNA. The following applies: cited from earlier work.
[3] abbreviates: first UV band listed in the cell (295–334 nm).
[4] abbreviates: second UV band listed in the cell (330–421 nm).

Consider `O=Cc1cc(F)ccc1[O-].O=Cc1cc(F)ccc1[O-].[Cu+2]` [Complex 1, [Cu(5–F–salo)2]], for which the “Δλ, blue-/red-shift of λmax upon addition of CT DNA” value (shortened to “Δλ, blue-/red-shift”) in series [1] (setting [3]) was “+16 nm”; in series [1] (setting [4]), “+20 nm”.
In the case of `O=Cc1cc(F)ccc1[O-].[Cl-].[Cu+2].c1ccc(Nc2ccccn2)nc1` [Complex 2, [Cu(5–F–salo)(bipyam)Cl]], the “Δλ, blue-/red-shift” value is −3 nm in series [1] (setting [3]) and “+20 nm” in series [1] (setting [4]).
In the case of `O=Cc1cc(F)ccc1[O-].O=[N+]([O-])[O-].[Cu+2].c1cnc2c(c1)ccc1cccnc12` [Complex 4, [Cu(5–F–salo)(phen)(NO3)]], the “Δλ, blue-/red-shift” value in series [1] (setting [3]) was “+4 nm”; in series [1] (setting [4]), −4 nm; in series [1] (third UV band listed in the cell (405 nm)), “+19 nm”.
Regarding `O=Cc1cc(F)ccc1O` [5–F–saloH, 5–fluoro–salicylaldehyde], the results for the “Δλ, blue-/red-shift” value in series [2] (band at 334 nm) and in series [2] (band at 421 nm) were “+1 nm” and 0 nm, respectively.
For `CO.Cc1ccc2ccc3ccc(C)nc3c2n1.O=Cc1cc(F)ccc1[O-].[Cl-].[Cu+2]` [Complex 3, [Cu(5–F–salo)(neoc)Cl].CH3OH], the results for the “Δλ, blue-/red-shift” value in series [1] (setting [3]) and in series [1] (setting [4]) were “+5 nm” and “+4 nm”, respectively.
